Data published in patent US20020098516A1.
No constants are given. Whether binding was seen depends on the method and setting.

Biological target: T1, usherin protein (mouse, native, from tissue extracts) (mouse) (UniProt Q2QI47)
T1 sequence (looked up): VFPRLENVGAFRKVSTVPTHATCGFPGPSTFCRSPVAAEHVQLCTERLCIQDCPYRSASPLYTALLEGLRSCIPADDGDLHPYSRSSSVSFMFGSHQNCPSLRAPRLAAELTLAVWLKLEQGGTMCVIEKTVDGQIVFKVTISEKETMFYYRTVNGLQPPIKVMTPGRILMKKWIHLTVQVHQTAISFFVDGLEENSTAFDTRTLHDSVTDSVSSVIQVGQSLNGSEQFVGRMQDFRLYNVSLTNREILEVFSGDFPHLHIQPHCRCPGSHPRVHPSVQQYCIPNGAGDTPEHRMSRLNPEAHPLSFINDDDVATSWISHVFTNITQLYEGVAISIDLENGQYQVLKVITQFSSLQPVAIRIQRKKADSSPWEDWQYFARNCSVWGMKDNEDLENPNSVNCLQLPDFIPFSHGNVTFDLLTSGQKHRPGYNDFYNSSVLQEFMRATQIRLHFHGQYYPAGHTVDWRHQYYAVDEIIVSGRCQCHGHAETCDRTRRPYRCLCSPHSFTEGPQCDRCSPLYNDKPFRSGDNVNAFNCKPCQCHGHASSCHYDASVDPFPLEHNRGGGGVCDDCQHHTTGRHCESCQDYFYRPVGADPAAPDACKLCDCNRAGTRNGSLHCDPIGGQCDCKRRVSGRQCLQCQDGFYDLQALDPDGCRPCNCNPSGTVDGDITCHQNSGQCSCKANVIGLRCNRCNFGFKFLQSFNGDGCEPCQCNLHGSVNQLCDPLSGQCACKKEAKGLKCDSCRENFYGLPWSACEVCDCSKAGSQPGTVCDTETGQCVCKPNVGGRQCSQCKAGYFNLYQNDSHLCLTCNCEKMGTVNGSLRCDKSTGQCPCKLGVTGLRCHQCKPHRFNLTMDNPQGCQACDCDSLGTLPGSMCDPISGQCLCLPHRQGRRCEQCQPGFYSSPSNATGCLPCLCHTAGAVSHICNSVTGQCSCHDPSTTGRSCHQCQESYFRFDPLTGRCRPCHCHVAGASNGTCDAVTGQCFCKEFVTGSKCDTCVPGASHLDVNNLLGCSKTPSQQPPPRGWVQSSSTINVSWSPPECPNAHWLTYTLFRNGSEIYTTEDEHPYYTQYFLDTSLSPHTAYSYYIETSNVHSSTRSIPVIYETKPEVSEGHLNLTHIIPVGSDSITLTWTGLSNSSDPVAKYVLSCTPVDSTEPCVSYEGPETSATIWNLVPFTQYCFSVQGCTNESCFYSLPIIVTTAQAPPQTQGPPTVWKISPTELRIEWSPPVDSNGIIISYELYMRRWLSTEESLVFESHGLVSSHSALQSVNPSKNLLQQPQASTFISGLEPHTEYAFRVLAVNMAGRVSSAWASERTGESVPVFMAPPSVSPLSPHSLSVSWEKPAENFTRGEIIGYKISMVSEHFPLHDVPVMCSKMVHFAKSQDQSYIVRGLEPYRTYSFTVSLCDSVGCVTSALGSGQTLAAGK
Experiment: fusion peptide mixed with retinal extract, anti-GST immunoprecipitation, western blot with usherin-specific antibodies

Substance | binding
fusion peptide comprising the LE domain of usherin (GST fusion) (murine) | no binding
fusion peptide comprising the fibronectin type III domain of usherin (GST fusion) (murine) | no binding
